# Experimental data reported in the supplement of paper PMC8728848.
# Some of the results follow.
# Legend:
# Assay in all cases: glycan array binding signal (z-score within array); higher = stronger binding
# Conditions in all cases: glycan notation: IUPAC condensed, linker removed
# Gal3S(b1-4)Glc = biological target: Gal3S(b1-4)Glc
# Summary of the method: (§1)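 Glycan array data were curated from 3228 arrays in the Consortium for Functional Glycomics database and kept only where the protein sequence was available. Glycan names were converted to IUPAC-condensed notation, and columns mapping to the same glycan were averaged. The binding signal is a within-array Z-score, averaged across arrays of the same protein sequence at different concentrations or buffers and across linkers. Negative Z-scores can be read as non-binding.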
# Gal3S(b1-4)Glc6S = biological target: Gal3S(b1-4)Glc6S
# Summary of the method: as §1
# Gal3S(b1-4)GlcNAc = biological target: Gal3S(b1-4)GlcNAc
# Summary of the method: as §1
# [1] = biological target: Gal3S(b1-4)[Fuc(a1-3)]Glc6S
# Summary of the method: as §1
# [2] = biological target: Gal3S(b1-4)[Fuc(a1-3)]GlcNAc
# Summary of the method: as §1
# [3] = biological target: Gal3S(b1-4)[Fuc(a1-3)]GlcNAc6S
# Summary of the method: as §1
# Gal3S4S(b1-4)GlcNAc = biological target: Gal3S4S(b1-4)GlcNAc
# Summary of the method: as §1
# Gal3S6S(b1-4)GlcNAc = biological target: Gal3S6S(b1-4)GlcNAc
# Summary of the method: as §1
# Gal3S6S(b1-4)GlcNAc6S = biological target: Gal3S6S(b1-4)GlcNAc6S
# Summary of the method: as §1
# Gal4S(b1-4)GlcNAc = biological target: Gal4S(b1-4)GlcNAc
# Summary of the method: as §1
# Gal4S6S(b1-4)GlcNAc = biological target: Gal4S6S(b1-4)GlcNAc
# Summary of the method: as §1
# Gal6P(b1-4)GlcNAc = biological target: Gal6P(b1-4)GlcNAc
# Summary of the method: as §1
# Gal6S(b1-3)GlcNAc = biological target: Gal6S(b1-3)GlcNAc
# Summary of the method: as §1
# Gal6S(b1-3)GlcNAc6S = biological target: Gal6S(b1-3)GlcNAc6S
# Summary of the method: as §1
# Gal6S(b1-4)Glc = biological target: Gal6S(b1-4)Glc
# Summary of the method: as §1
# Gal6S(b1-4)Glc6S = biological target: Gal6S(b1-4)Glc6S
# Summary of the method: as §1
# Gal6S(b1-4)GlcNAc = biological target: Gal6S(b1-4)GlcNAc
# Summary of the method: as §1
# Gal6S(b1-4)GlcNAc6S = biological target: Gal6S(b1-4)GlcNAc6S
# Summary of the method: as §1
# GalNAc(a1-3)Gal = biological target: GalNAc(a1-3)Gal
# Summary of the method: as §1
# GalNAc(a1-3)GalNAc = biological target: GalNAc(a1-3)GalNAc
# Summary of the method: as §1
# [4] = biological target: GalNAc(a1-3)GalNAc(b1-3)Gal(a1-4)Gal(b1-4)Glc
# Summary of the method: as §1
# [5] = biological target: GalNAc(a1-3)GalNAc(b1-3)Gal(a1-4)Gal(b1-4)GlcNAc
# Summary of the method: as §1
# GalNAc(b1-3)Gal = biological target: GalNAc(b1-3)Gal
# Summary of the method: as §1
# [6] = biological target: GalNAc(b1-3)Gal(a1-4)Gal(b1-4)GlcNAc
# Summary of the method: as §1
# [7] = biological target: GalNAc(b1-3)Gal(a1-4)Gal(b1-4)GlcNAc(b1-3)Gal(b1-4)Glc
# Summary of the method: as §1
# [8] = biological target: GalNAc(b1-3)Gal(a1-6)Gal(b1-4)Glc
# Summary of the method: as §1
# GalNAc(b1-3)GalNAc = biological target: GalNAc(b1-3)GalNAc
# Summary of the method: as §1
# GalNAc(b1-3)GlcNAc = biological target: GalNAc(b1-3)GlcNAc
# Summary of the method: as §1
# GalNAc(b1-4)Gal(b1-4)Glc = biological target: GalNAc(b1-4)Gal(b1-4)Glc
# Summary of the method: as §1
# GalNAc(b1-4)GlcNAc = biological target: GalNAc(b1-4)GlcNAc
# Summary of the method: as §1
# [9] = biological target: GalNAc(b1-4)GlcNAc(b1-2)Man
# Summary of the method: as §1
# [10] = biological target: GalNAc(b1-4)GlcNAc(b1-2)Man(a1-3)[GalNAc(b1-4)GlcNAc(b1-2)Man(a1-6)]Man(b1-4)GlcNAc(b1-4)GlcNAc
# Summary of the method: as §1
# [11] = biological target: GalNAc(b1-4)GlcNAc(b1-3)GalNAc(b1-4)GlcNAc
# Summary of the method: as §1
# GalNAc(b1-4)GlcNAc6S = biological target: GalNAc(b1-4)GlcNAc6S
# Summary of the method: as §1
# GalNAc(b1-6)GalNAc = biological target: GalNAc(b1-6)GalNAc
# Summary of the method: as §1
# GalNAc3S(b1-4)GlcNAc = biological target: GalNAc3S(b1-4)GlcNAc
# Summary of the method: as §1
# GalNAc3S(b1-4)GlcNAc3S = biological target: GalNAc3S(b1-4)GlcNAc3S
# Summary of the method: as §1
binder,measurement,setting,value
SP15308F-bth-333-19-333 (Bacteroides thetaiotaomicron) (protein) SCNNEWESEQYVQMVSFKAPVNAQGVTPIYIRYKPEGKVTYQLPLIVSGSTMNSKDLNVHVGLDLDTLDVLNVEHFGSRKELFFKPLENKYYEFPETVQIPAGECTSLLPIDFALKDLDQVDKWVLPLAIQSNDPSHNYQANPRKFYRRAMLRISPFNDYSGQYSATAYKVYFKGNEKEAIVPEYHTSYVIDDKTIFFYAGLIDIDRLDRKYYKIKFEFTEEKIDLQTRKLKISSDNEDINLVVKGQPSYTVEEEMDATRPYLKHIYVTINNLEYEFTDYTSVPGYPLEYVVKGSLTMERKINTQIPDEDQAIEW,glycan array binding signal (z-score),Gal3S(b1-4)Glc,-0.06
same,glycan array binding signal (z-score),Gal3S(b1-4)Glc6S,-0.577
same,glycan array binding signal (z-score),Gal3S(b1-4)GlcNAc,0.14
same,glycan array binding signal (z-score),[1],1.88
same,glycan array binding signal (z-score),[2],-0.163
same,glycan array binding signal (z-score),[3],0.007
same,glycan array binding signal (z-score),Gal3S4S(b1-4)GlcNAc,0.361
same,glycan array binding signal (z-score),Gal3S6S(b1-4)GlcNAc,-0.807
same,glycan array binding signal (z-score),Gal3S6S(b1-4)GlcNAc6S,0.556
same,glycan array binding signal (z-score),Gal4S(b1-4)GlcNAc,0.397
same,glycan array binding signal (z-score),Gal4S6S(b1-4)GlcNAc,-0.116
same,glycan array binding signal (z-score),Gal6P(b1-4)GlcNAc,-0.638
same,glycan array binding signal (z-score),Gal6S(b1-3)GlcNAc,-0.179
same,glycan array binding signal (z-score),Gal6S(b1-3)GlcNAc6S,0.574
same,glycan array binding signal (z-score),Gal6S(b1-4)Glc,-0.443
same,glycan array binding signal (z-score),Gal6S(b1-4)Glc6S,0.269
same,glycan array binding signal (z-score),Gal6S(b1-4)GlcNAc,-0.584
same,glycan array binding signal (z-score),Gal6S(b1-4)GlcNAc6S,-1.02
same,glycan array binding signal (z-score),GalNAc(a1-3)Gal,1.23
same,glycan array binding signal (z-score),GalNAc(a1-3)GalNAc,-0.628
same,glycan array binding signal (z-score),[4],-0.565
same,glycan array binding signal (z-score),[5],0.634
same,glycan array binding signal (z-score),GalNAc(b1-3)Gal,-0.62
same,glycan array binding signal (z-score),[6],0.394
same,glycan array binding signal (z-score),[7],-0.982
same,glycan array binding signal (z-score),[8],-0.311
same,glycan array binding signal (z-score),GalNAc(b1-3)GalNAc,-1.01
same,glycan array binding signal (z-score),GalNAc(b1-3)GlcNAc,-0.114
same,glycan array binding signal (z-score),GalNAc(b1-4)Gal(b1-4)Glc,-1.55
same,glycan array binding signal (z-score),GalNAc(b1-4)GlcNAc,0.196
same,glycan array binding signal (z-score),[9],-0.322
same,glycan array binding signal (z-score),[10],1.38
same,glycan array binding signal (z-score),[11],0.276
same,glycan array binding signal (z-score),GalNAc(b1-4)GlcNAc6S,-0.005
same,glycan array binding signal (z-score),GalNAc(b1-6)GalNAc,2.02
same,glycan array binding signal (z-score),GalNAc3S(b1-4)GlcNAc,0.27
same,glycan array binding signal (z-score),GalNAc3S(b1-4)GlcNAc3S,-0.302

# Two records picked at random from those above, as already listed:
binder,measurement,setting,value
SP15308F-bth-333-19-333 (Bacteroides thetaiotaomicron) (protein) SCNNEWESEQYVQMVSFKAPVNAQGVTPIYIRYKPEGKVTYQLPLIVSGSTMNSKDLNVHVGLDLDTLDVLNVEHFGSRKELFFKPLENKYYEFPETVQIPAGECTSLLPIDFALKDLDQVDKWVLPLAIQSNDPSHNYQANPRKFYRRAMLRISPFNDYSGQYSATAYKVYFKGNEKEAIVPEYHTSYVIDDKTIFFYAGLIDIDRLDRKYYKIKFEFTEEKIDLQTRKLKISSDNEDINLVVKGQPSYTVEEEMDATRPYLKHIYVTINNLEYEFTDYTSVPGYPLEYVVKGSLTMERKINTQIPDEDQAIEW,glycan array binding signal (z-score),GalNAc3S(b1-4)GlcNAc,0.27
same,glycan array binding signal (z-score),[10],1.38
